# Source: the supplement of paper PMC7125110
# ± gives the standard error. The uncertainty is large for many entries.
# B1: glmS ribozyme (parent)
# chain: AUAAAAGCGCCAGAACUACAGAAAUGUAGUUGACGAGGAGGAGGUUUAUCGAAUUUUCGGCGGAUGCCUCCAAA
# Variants of: B1
# Experiment: self-cleavage kobs at 640 uM GlcN6P; higher = faster cleavage; RNA array
# Settings: with glucosamine-6-phosphate
# How it was run: (§1)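 On sequenced MiSeq chips, barcoded ribozyme variants were made in situ by E. coli RNA polymerase and followed at 37 °C through a hybridised Cy3 probe. Glucosamine-6-phosphate was flowed in at 40 μM to 10 mM in HEPES/KCl/Mg(OAc)2 buffer. Exponential fits to normalised per-tile medians gave kobs, and weighted Michaelis–Menten fits gave kcat and KM.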
row,Variant,self-cleavage kobs at 640 uM GlcN6P
1,G32A G37A U49C G51U G59C C68G,2.77e-05 ± 2.7e-05 s⁻¹
2,A33U A42C C58A G59U,3.16e-05 ± 2.6e-05 s⁻¹
3,C34G C71G,2.49e-05 ± 1.6e-05 s⁻¹
4,C34U G51A C68A,0.000265 ± 0.00015 s⁻¹
5,C34U G63U A64G,3.67e-05 ± 3.4e-05 s⁻¹
6,G35C U46C C67A,2.55e-05 ± 2.3e-05 s⁻¹
7,A36G U54G U57G C70A,2.77e-05 ± 2.7e-05 s⁻¹
8,A36G U56G G63A C70G,0.000171 ± 0.0001 s⁻¹
9,A36U C67G,2.79e-05 ± 1.7e-05 s⁻¹
10,A36U G38U A39U,2.06e-05 ± 2e-05 s⁻¹
11,A36U U69A,7.85e-05 ± 3.9e-05 s⁻¹
12,G37A A52G,2.58e-05 ± 1.5e-05 s⁻¹
13,G37A A52U U57A,3.01e-05 ± 2e-05 s⁻¹
14,G37C C71U,1.85e-05 ± 1.8e-05 s⁻¹
15,G37C G59U,1.92e-05 ± 1.9e-05 s⁻¹
16,G37C G63C C68U,4.71e-05 ± 4.5e-05 s⁻¹
17,G38A G51U C70A,2.2e-05 ± 1.5e-05 s⁻¹
18,G38C C61A C67U,3.17e-05 ± 2.4e-05 s⁻¹
19,A39C A48C,1.34e-05 ± 1.1e-05 s⁻¹
20,A39C U56C U65G,1.95e-05 ± 1.7e-05 s⁻¹
21,A39G G41C,3.16e-05 ± 2.1e-05 s⁻¹
22,A39U A52U,1.24e-05 ± 9.6e-06 s⁻¹
23,A39U C67G C71A,4.67e-05 ± 2.9e-05 s⁻¹
24,A39U G41U U46A,1.92e-05 ± 1e-05 s⁻¹

row,Variant,self-cleavage kobs at 640 uM GlcN6P
1,G40C U49A G51C C70A,4.21e-05 ± 2.8e-05 s⁻¹
2,G40C U56G C70U,2.58e-05 ± 2.4e-05 s⁻¹
3,G40U U45G C67U,1.8e-05 ± 1.7e-05 s⁻¹
4,A42G A52G U65G,2.58e-05 ± 1.8e-05 s⁻¹
5,G43U C67U C68U,1.76e-05 ± 1.4e-05 s⁻¹
6,U45C U65C,2.3e-05 ± 1.2e-05 s⁻¹
7,U46G C50G C68G,2.96e-05 ± 2.7e-05 s⁻¹
8,U47A U49A C61G A64U C67U,3.44e-05 ± 2.7e-05 s⁻¹
9,U47G U54G U57C,2.28e-05 ± 1.9e-05 s⁻¹
10,A48G C67U,2.84e-05 ± 1.8e-05 s⁻¹
11,A48G U55A C70A,3.62e-05 ± 2.8e-05 s⁻¹
12,U49A C70G,1.77e-05 ± 1.6e-05 s⁻¹
13,U49A U54G C70G,5.57e-05 ± 3.5e-05 s⁻¹
14,U49C C68G,0.000547 ± 0.00048 s⁻¹
15,C50A A53G,2.44e-05 ± 1.7e-05 s⁻¹
16,C50A A53U C67U,3.82e-05 ± 2.9e-05 s⁻¹
17,C50A C67A,2.12e-05 ± 1.8e-05 s⁻¹
18,C50A C70A C71A,3.55e-05 ± 2.8e-05 s⁻¹
19,C50G C58G G62C,3.58e-05 ± 2e-05 s⁻¹
20,C50G G51C,2.49e-05 ± 2.1e-05 s⁻¹
21,C50G G51C U54A C68A,5.18e-05 ± 2.9e-05 s⁻¹
22,C50G G62A,3.33e-05 ± 2.8e-05 s⁻¹
23,C50G U56G,3.98e-05 ± 2.2e-05 s⁻¹
24,C50U C61G,1.72e-05 ± 1.7e-05 s⁻¹

# Some of the entries above in a different format.
row | Variant | self-cleavage kobs at 640 uM GlcN6P
9 | U47G U54G U57C | 2.28e-05 ± 1.9e-05 s⁻¹
10 | A48G C67U | 2.84e-05 ± 1.8e-05 s⁻¹
11 | A48G U55A C70A | 3.62e-05 ± 2.8e-05 s⁻¹

# (list continues)

row,Variant,self-cleavage kobs at 640 uM GlcN6P
1,C50U C67U,2.8e-05 ± 1.5e-05 s⁻¹
2,C50U C68U,2.04e-05 ± 1.3e-05 s⁻¹
3,A52C U55G C58G C68A,4.31e-05 ± 2.3e-05 s⁻¹
4,A52C U65A C67G,2.34e-05 ± 2.2e-05 s⁻¹
5,A52G U65C,2.56e-05 ± 2.5e-05 s⁻¹
6,A52U A64G C68U,2.85e-05 ± 2.5e-05 s⁻¹
7,A52U C67G C70G,2.51e-05 ± 1.8e-05 s⁻¹
8,A53G C58A C71A,1.48e-05 ± 1.4e-05 s⁻¹
9,U54C G59A,2.73e-05 ± 1.9e-05 s⁻¹
10,U54G C67G C70A C71U,3.73e-05 ± 2.2e-05 s⁻¹
11,U57G C71G,2.27e-05 ± 1.6e-05 s⁻¹
12,C58A G63A C71U,3.53e-05 ± 2.3e-05 s⁻¹
13,C58U C68A,2.58e-05 ± 1.8e-05 s⁻¹
14,C58U C70U,< 1e-05 s⁻¹
15,G59A U69C,2.2e-05 ± 1.3e-05 s⁻¹
16,G59U C61G C68G,4.42e-05 ± 3.2e-05 s⁻¹
17,G59U C68A,2.17e-05 ± 1.5e-05 s⁻¹
18,C61A,< 1e-05 s⁻¹
19,C61A G62C U69A,3.15e-05 ± 2.6e-05 s⁻¹
20,C61A G62U C67G C68U,4.06e-05 ± 3.3e-05 s⁻¹
21,C61G C67U,2.18e-05 ± 1.8e-05 s⁻¹
22,C61U,< 1e-05 s⁻¹
23,G63U U65A U69A,3.94e-05 ± 2.7e-05 s⁻¹

# Variants of: B1
# Experiment: self-cleavage kobs at 160 uM GlcN6P; higher = faster cleavage; RNA array
# Settings: with glucosamine-6-phosphate
# How it was run: as §1
row,Variant,self-cleavage kobs at 160 uM GlcN6P
1,A33U A42C C58A G59U,1.75e-05 ± 1.4e-05 s⁻¹
2,G35C U46C C67A,6.44e-05 ± 3.8e-05 s⁻¹
3,A36U G38U A39U,2.33e-05 ± 2.1e-05 s⁻¹
4,C50U C67U,1.55e-05 ± 1.4e-05 s⁻¹
5,C50U C68U,1.61e-05 ± 1.3e-05 s⁻¹
6,G59U C68A,2.13e-05 ± 2.1e-05 s⁻¹
7,C61G C67U,2.2e-05 ± 1.4e-05 s⁻¹

# Variants of: B1
# Experiment: self-cleavage kobs at 2500 uM GlcN6P; higher = faster cleavage; RNA array
# Settings: with glucosamine-6-phosphate
# How it was run: as §1
row,Variant,self-cleavage kobs at 2500 uM GlcN6P
1,A33U A42C C58A G59U,4.28e-05 ± 2.4e-05 s⁻¹
2,A36G U56G G63A C70G,3.62e-05 ± 3.2e-05 s⁻¹
3,G38C C61A C67U,3.7e-05 ± 2.1e-05 s⁻¹
4,C50A C67A,2.9e-05 ± 1.5e-05 s⁻¹
5,C50A C70A C71A,3.08e-05 ± 1.7e-05 s⁻¹
6,U54C G59A,2.02e-05 ± 1.6e-05 s⁻¹
7,U54G C67G C70A C71U,4.14e-05 ± 3e-05 s⁻¹
8,G59A U69C,2.91e-05 ± 2.5e-05 s⁻¹
9,G59U C68A,2.8e-05 ± 1.8e-05 s⁻¹
10,C61G C67U,2.45e-05 ± 1.4e-05 s⁻¹

# Variants of: B1
# Experiment: self-cleavage kobs at 10000 uM GlcN6P; higher = faster cleavage; RNA array
# Settings: with glucosamine-6-phosphate
# How it was run: as §1
row,Variant,self-cleavage kobs at 10000 uM GlcN6P
1,A36U U69A,2.48e-05 ± 2e-05 s⁻¹
2,A48G C67U,2.16e-05 ± 1.2e-05 s⁻¹
3,C50G G62A,0.00056 ± 0.00043 s⁻¹
4,C50U C67U,1.68e-05 ± 9.4e-06 s⁻¹
5,C50U C68U,1.58e-05 ± 8.6e-06 s⁻¹
6,A52G U65C,3.21e-05 ± 1.6e-05 s⁻¹
